Source: the supplement of paper PMC12823440, “Inhibitors supercharge kinase turnover through native proteolytic circuits” (Nature, 2025)
Where a name gives a salt, the structure may show the parent alone. Some of the results follow. The calls rarely recur for the same compound in another form.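 Kinases were expressed as nanoluciferase fusions in K562 cells and luminescence was read every 4 h between 2 and 18 h as percent of control, DMSO set to 100% and a positive control to 0%. A time point counts as decreased when the signal drops significantly (2 sigma). The hit call is the authors' own, does not follow from the count of time points alone, and its rule is not shown.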

Amino acid sequences for entries named in this document (tags omitted).
UniProt Q01974, whole entry: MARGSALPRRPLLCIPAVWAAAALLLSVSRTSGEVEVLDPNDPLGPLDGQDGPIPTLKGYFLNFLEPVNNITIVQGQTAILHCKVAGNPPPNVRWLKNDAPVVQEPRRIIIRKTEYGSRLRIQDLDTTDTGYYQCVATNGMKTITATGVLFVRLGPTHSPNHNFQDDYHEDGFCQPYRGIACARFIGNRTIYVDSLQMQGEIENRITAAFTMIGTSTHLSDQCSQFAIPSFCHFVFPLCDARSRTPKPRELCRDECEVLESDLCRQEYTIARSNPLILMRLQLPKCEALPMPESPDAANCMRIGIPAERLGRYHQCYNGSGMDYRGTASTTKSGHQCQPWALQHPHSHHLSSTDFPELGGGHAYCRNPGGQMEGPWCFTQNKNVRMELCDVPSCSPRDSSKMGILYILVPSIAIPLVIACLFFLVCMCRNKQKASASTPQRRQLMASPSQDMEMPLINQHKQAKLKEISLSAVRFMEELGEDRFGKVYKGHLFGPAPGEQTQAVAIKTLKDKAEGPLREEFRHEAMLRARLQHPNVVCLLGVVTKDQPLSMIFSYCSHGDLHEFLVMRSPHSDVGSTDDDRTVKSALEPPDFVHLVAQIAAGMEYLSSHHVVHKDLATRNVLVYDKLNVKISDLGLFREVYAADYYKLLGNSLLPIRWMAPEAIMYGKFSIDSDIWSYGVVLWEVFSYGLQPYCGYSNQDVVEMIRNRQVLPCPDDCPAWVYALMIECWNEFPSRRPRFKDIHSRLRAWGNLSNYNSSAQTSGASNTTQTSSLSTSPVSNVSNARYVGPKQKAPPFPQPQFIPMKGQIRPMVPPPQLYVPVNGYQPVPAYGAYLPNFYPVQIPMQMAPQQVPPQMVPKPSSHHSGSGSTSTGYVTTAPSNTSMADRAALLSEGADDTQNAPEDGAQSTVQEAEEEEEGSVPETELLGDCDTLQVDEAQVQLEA

biological target: ROR2 (UniProt Q01974); assay: number of time points (of 5) at which kinase-Nluc abundance scored as decreased, DMSO-normalised (count); higher = more persistent destabilization; conditions: K562; 2-18 h

SMILES | number of time points
C[C@H]1Cc2ccccc2N1C(=O)Cc1nc(N2CCOCC2)cc(=O)[nH]1 (2.5 µM) | 0
CC(C)c1cc(/C=C(\C#N)C(N)=O)cc(C(C)C)c1O (10 µM) | 0
COc1c(C)c(C(=O)c2ccc(N)c(C(=O)O)c2)n2ccccc12 (10 µM) | 0
C[C@@H]1CCc2ncc(F)cc2[C@H]2CCCN2c2ccn3ncc(c3n2)C(=O)N1 [Selitrectinib] (10 µM) | 0
CCN(C)C(=O)c1ccc2c(C(=Nc3ccc(CN4CCCCC4)cc3)c3ccccc3)c(O)[nH]c2c1 (2.5 µM) | 0
O=C(CO)N1CCC(c2n[nH]c(-c3ccc(Cl)cc3)c2-c2ccncn2)CC1 (10 µM) | 0
C[C@@H]1COCCN1c1cc(C2([S@](C)(=N)=O)CC2)nc(-c2cc[nH]c3nccc2-3)n1 [Ceralasertib] (2.5 µM) | 0
CCOC(=O)c1c2c3c(cccc3[nH]c1=O)C(=O)c1ccccc1-2 (10 µM) | 0
O=C(c1ccc(Nc2nccc(-c3cc4ccccc4s3)n2)cc1)N1CCC(N2CCCC2)CC1 (2.5 µM) | 0
Cc1ccc(-c2nn(C(C)(C)CNC(=O)c3ccncc3)c3ncnc(N)c23)cc1 (2.5 µM) | 0
O=C(O)c1ccc(-c2c[nH]c3ncc(-c4ccccc4)cc23)cc1C1CCCC1 (2.5 µM) | 0
CCOc1nc(Nc2ccc(C(=O)N3CCOCC3)cc2OC)nc2[nH]ccc12 [LRRK2 inhibitor 1] (2.5 µM) | 0
CN(CC(=O)N(Cc1ccc(C2CCCCC2)cc1)c1ccc(C(=O)O)c(O)c1)S(=O)(=O)c1c(F)c(F)c(F)c(F)c1F (2.5 µM) | 0
Nc1nc2cc(-c3ccc4ncc(C(=O)N5CCOCC5)n4c3)ccc2o1 [Serabelisib] (10 µM) | 0
OCCN(CCO)c1ccc(C(c2ccc(Cl)cc2)c2ccc(N(CCO)CCO)cc2)cc1 (10 µM) | 0
O=c1nc(N2CCOCC2)oc2c(-c3cccc4c3sc3ccccc34)cccc12 (10 µM) | 0
c1ccc(-c2nn3c(c2-c2ccnc4cc(OCCN5CCOCC5)ccc24)CCC3)nc1 (10 µM) | 0

SMILES | number of time points
O=C(Nc1ccc(Cl)c(Cl)c1)Nc1ccc2nnsc2c1 (10 µM) | 0
N#C/C(=C(/N)Sc1ccc(N)cc1)c1ccccc1C(F)(F)F (10 µM) | 0
O=c1ccoc2cc(O)ccc12 [7-Hydroxy-4H-chromen-4-one] (10 µM) | 0
COc1cc(C(=O)N2CCC(N3CCN(C)CC3)CC2)ccc1Nc1ncc2c(n1)N(C)c1ccccc1C(=O)N2C (10 µM) | 0
CC(=O)Nc1nc2ccc(-c3cnc(C)c(NC(=O)OC4CCCCC4)c3)cc2s1 (10 µM) | 0
O=C1NC(=O)C(c2cn(-c3ccccc3)nc2-c2ccc(F)cc2)N1 (centres undefined) (10 µM) | 0
CCCCNC(=N)NC(=N)N [Buformin (hydrochloride)] (2.5 µM) | 0
C[C@H]1[C@H](OC(=O)CCC(=O)O)O[C@@H]2O[C@@]3(C)CC[C@H]4[C@H](C)CC[C@@H]1[C@@]24OO3 [Artesunate] (2.5 µM) | 0
COc1ncc(Nc2ncc([C@@H](C)N3CCN(S(C)(=O)=O)CC3)cc2-c2nc(C)nc(N)n2)cc1F (10 µM) | 0
COC1(C(=O)N[C@@H](C)c2ccc(-n3cc(F)cn3)nc2)CCC(c2nc(C)cc(Nc3cc(C)[nH]n3)n2)CC1 (stereo partly drawn) [trans-Pralsetinib] (2.5 µM) | 0
CC(=O)NCCc1c[nH]c2ccc(O)cc12 [N-Acetyl-5-hydroxytryptamine] (10 µM) | 0
O=[N+]([O-])c1ccc(Sc2cccc[n+]2[O-])c2nonc12 (2.5 µM) | 0
COc1ccc(CNc2nc(N(CCO)CCO)nc3c2ncn3C(C)C)cc1 (2.5 µM) | 0
CC(CCc1ccccn1)(CCc1ccccn1)C(=O)c1ccccc1 (10 µM) | 0
[O-][n+]1cccc(-c2nc3c(Cl)cccc3cc2[C@@H](Nc2ncnc3cccnc23)C(F)(F)F)c1 [Seletalisib] (10 µM) | 0
Cc1cc2cc(Oc3ccnc(Nc4cccc(CS(=O)(=O)NCCN(C)C)c4)n3)ccc2[nH]1 [Sulfatinib] (10 µM) | 0
O=C1NC(=O)C(c2cnc3ccccn23)=C1c1cn2c3c(cc(F)cc13)CN(C(=O)N1CCCCC1)CC2 (2.5 µM) | 0

For convenience, some entries already given:
SMILES | number of time points
CC(=O)NCCc1c[nH]c2ccc(O)cc12 [N-Acetyl-5-hydroxytryptamine] (10 µM) | 0
O=[N+]([O-])c1ccc(Sc2cccc[n+]2[O-])c2nonc12 (2.5 µM) | 0
